Paper PMC9270398
No constants are given. Whether binding was seen depends on the method and setting. In cells and extracts the contact can be indirect. Some binding calls cover weakened binding; strength is not graded here. Sequences can lack the tags named with a protein.

Chains of the proteins cited; added tags and fusions are not shown.
UniProt O14980: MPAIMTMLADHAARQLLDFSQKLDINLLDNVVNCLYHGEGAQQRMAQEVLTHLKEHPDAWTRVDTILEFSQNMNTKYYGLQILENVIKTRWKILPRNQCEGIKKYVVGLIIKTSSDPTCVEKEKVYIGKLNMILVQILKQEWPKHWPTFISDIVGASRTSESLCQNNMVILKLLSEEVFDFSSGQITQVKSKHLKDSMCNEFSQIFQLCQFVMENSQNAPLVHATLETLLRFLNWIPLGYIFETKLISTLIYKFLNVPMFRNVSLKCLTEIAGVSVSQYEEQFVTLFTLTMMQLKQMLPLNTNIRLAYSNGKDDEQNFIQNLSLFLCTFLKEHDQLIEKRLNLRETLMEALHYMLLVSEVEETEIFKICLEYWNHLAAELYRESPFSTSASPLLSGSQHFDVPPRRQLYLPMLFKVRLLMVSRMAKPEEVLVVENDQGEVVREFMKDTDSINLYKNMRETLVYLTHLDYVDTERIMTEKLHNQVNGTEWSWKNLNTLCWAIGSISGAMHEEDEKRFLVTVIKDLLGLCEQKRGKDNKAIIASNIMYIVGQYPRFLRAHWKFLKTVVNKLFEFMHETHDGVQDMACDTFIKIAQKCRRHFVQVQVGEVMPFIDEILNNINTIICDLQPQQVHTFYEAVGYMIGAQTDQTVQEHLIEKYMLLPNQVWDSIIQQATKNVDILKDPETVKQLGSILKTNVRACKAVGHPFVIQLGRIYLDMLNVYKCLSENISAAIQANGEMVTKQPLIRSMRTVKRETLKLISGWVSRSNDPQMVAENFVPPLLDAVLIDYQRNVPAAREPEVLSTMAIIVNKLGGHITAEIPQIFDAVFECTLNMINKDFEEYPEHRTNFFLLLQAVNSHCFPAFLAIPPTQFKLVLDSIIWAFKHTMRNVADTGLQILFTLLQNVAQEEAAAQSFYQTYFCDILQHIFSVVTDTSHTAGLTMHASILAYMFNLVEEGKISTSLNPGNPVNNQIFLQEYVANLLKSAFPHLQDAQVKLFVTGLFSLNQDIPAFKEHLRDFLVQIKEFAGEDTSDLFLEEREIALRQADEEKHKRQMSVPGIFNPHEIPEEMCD

T1: GFP-GST-NLS2 (second nuclear localisation signal of TRIM24 on a GFP-GST fusion protein) (not stated (human or mouse cDNA cloned))
T1 sequence: VQPRKKRLKSIEE

T2: GFP-TRIM24 fusion protein (tripartite motif-containing 24) (not stated (human or mouse cDNA cloned)) (UniProt O15164)
T2 sequence: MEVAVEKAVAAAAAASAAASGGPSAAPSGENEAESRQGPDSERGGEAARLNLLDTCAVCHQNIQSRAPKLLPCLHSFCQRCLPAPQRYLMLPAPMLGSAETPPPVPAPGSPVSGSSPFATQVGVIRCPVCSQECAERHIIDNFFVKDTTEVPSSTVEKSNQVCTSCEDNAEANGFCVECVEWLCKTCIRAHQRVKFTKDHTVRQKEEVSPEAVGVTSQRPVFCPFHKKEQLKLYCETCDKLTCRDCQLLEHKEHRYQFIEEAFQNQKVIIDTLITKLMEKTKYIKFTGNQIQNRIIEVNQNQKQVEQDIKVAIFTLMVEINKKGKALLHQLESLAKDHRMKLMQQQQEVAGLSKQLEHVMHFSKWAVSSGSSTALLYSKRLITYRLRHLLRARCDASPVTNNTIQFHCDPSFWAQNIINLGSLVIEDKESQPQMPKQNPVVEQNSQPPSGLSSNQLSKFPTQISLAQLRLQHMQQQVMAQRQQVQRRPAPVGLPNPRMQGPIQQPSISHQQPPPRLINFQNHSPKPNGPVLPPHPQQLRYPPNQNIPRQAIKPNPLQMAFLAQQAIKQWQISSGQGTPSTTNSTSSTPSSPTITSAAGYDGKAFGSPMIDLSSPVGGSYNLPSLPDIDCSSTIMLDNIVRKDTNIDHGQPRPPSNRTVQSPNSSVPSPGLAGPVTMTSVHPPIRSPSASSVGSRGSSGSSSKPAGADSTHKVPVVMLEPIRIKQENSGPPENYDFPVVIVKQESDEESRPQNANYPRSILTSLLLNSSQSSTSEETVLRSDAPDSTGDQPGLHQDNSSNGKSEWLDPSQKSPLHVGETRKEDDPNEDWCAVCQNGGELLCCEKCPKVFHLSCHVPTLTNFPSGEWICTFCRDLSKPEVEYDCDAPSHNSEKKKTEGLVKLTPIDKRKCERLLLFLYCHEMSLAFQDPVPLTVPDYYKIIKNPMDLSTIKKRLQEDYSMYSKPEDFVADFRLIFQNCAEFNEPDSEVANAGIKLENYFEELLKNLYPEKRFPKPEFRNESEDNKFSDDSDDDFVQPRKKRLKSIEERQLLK


How the values were obtained:
[1] = target: T1, GFP-GST-NLS2 (second nuclear localisation signal of TRIM24 on a GFP-GST fusion protein) (not stated (human or mouse cDNA cloned)); assay: co-IP; GFP-GST-NLS2 and Flag-XPO1 co-expressed in cells; reciprocal immunoprecipitation of GFP-GST-NLS2 (Supplementary Fig. 2D)
[2] = target: T2, GFP-TRIM24 fusion protein (tripartite motif-containing 24) (not stated (human or mouse cDNA cloned)); assay: co-IP; GFP-TRIM24 and Flag-XPO1 co-expressed in cells (Supplementary Fig. 2A); which protein was precipitated and the cell type are not given
[3] = target: Flag-tagged exportin-1 (XPO1) (UniProt O14980); assay: co-IP; GFP-GST-NLS2 and Flag-XPO1 co-expressed in cells; immunoprecipitation of Flag-XPO1 (Supplementary Fig. 2C)

| Molecule | binding [1] | binding [2] | binding [3] |
| --- | --- | --- | --- |
| Flag-tagged exportin-1 (XPO1) (from UniProt O14980 1-1071) | binds | binds |  |
| VQPRKKRLKSIEE (domain or fragment) [GFP-GST-NLS2 (second nuclear localisation signal of TRIM24 on a GFP-GST fusion protein)] |  |  | binds |
